This note sets out measurements from article doi:10.1101/2024.03.07.581839 (bioRxiv, 2024).

Read-outs that look alike come from different tables or passages of the source. Results are given in words; binding and its absence hold for the method and conditions named. Some results given as binding are weak or reduced against the parent protein; the word gives no strength.

For assay [1], the target named is human GPR156 (human) (UniProt Q8NFN8). In words: cryo-EM structure.
Assay [2] shares this target. In words: cryo-EM structure. The source holds these as a separate data set.

B1: human GPR156 (receptor)
chain: MEPEINCSELCDSFPGQELDRRPLHDLCKTTITSSHHSSKTISSLSPVLLGIVWTFLSCGLLLILFFLAFTIHCRKNRIVKMSSPNLNIVTLLGSCLTYSSAYLFGIQDVLVGSSMETLIQTRLSMLCIGTSLVFGPILGKSWRLYKVFTQRVPDKRVIIKDLQLLGLVAALLMADVILLMTWVLTDPIQCLQILSVSMTVTGKDVSCTSTSTHFCASRYSDVWIALIWGCKGLLLLYGAYLAGLTGHVSSPPVNQSLTIMVGVNLLVLAAGLLFVVTRYLHSWPNLVFGLTSGGIFVCTTTINCFIFIPQLKQWKAFEEENQTIRRMAKYFSTPNKSFHTQYGEEENCHPRGEKSSMERLLTEKNAVIESLQEQVNNAKEKIVRLMSAECTYDLPEGAAPPASSPNKDVQAVASVHTLAAAQGPSGHLSDFQNDPGMAARDSQCTSGPSSYAQSLEGPGKDSSFSPGKEEKISDSKDFSDHLDSGCSQKPWTEQSLGPERGDQVPMNPSQSLLPERGGSDPQRQRHLENSEEPPERRSRVSSVIREKLQEVLQDLGLGPEASLSTAPSCHQQTWKNSAAFSPQKMPLSKELGFSPYMVRRRRAAQRARSHFPGSAPSSVGHRANRTVPGAHSRLHVQNGDSPSLAPQTTDSRVRRPSSRKPSLPSDPQDRPGTLEGSKQSQTEPEGARGSKAAFLRQPSGSGRAPSPAAPCLSKASPDLPEQWQLWPPVPSGCASLSSQHSYFDTESSSSDEFFCRCHRPYCEICFQSSSDSSDSGTSDTDPEPTGGLASWEKLWARSKPIVNFKDDLKPTLV
As to B1, the binding entry in the assay with human GPR156 (human) [1] and with human GPR156 (human) [2] was “binds” throughout.
